Reference: publication PMC7515738
For at least one entry, the source does not settle the construct or the ends of the probe. For part of these data: The comparison behind a weaker result is the experiment's own reference, which may not be listed here.

Sequences of proteins named here, by UniProt entry; tags and fusion partners are left off.
UniProt P60842, whole entry, stated change not applied: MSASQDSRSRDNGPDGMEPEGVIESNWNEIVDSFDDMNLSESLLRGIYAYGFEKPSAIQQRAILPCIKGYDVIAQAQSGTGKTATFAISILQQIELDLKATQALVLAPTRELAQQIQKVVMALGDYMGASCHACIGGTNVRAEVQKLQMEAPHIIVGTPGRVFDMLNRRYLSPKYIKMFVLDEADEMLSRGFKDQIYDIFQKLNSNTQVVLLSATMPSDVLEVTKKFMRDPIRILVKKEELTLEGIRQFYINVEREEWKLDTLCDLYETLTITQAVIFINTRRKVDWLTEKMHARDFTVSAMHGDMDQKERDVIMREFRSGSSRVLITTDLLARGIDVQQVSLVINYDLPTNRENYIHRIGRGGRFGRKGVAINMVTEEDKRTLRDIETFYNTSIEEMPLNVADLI

Key:
[1] = target: eIF4A1 T242 HippR variant (UniProt P60842); assay: fluorescence polarization; conditions: FP: 1 uM recombinant protein, FAM-poly r(AG)8, vehicle (0.1% DMSO) or Hipp, 30 min, protein details: His6
eIF4A1 wt = eIF4A1 wt (UniProt P60842); assay: fluorescence polarization; conditions: hippuristanol, 1 uM protein, RNA binding inhibited, FP: 1 uM recombinant protein, FAM-poly r(AG)8, vehicle (0.1% DMSO) or Hipp, 30 min, protein details: His6

Does AGAGAGAGAGAGAGAG [poly r(AG)8] bind ([1]; hippuristanol, 1 uM protein, not inhibited)?
Result: binds

Does AGAGAGAGAGAGAGAG [poly r(AG)8] bind ([1]; no Hipp, similar to wt)?
Result: binds

Does AGAGAGAGAGAGAGAG [poly r(AG)8] bind (eIF4A1 wt)?
Result: binds more weakly
